# In the supplement of paper PMC12823440, “Inhibitors supercharge kinase turnover through native proteolytic circuits” (Nature, 2025):
# Sequences of proteins named here, by UniProt entry; tags and fusion partners are left off. A change or cut given only in a name is not applied to a line headed by its entry.
# UniProt Q06187: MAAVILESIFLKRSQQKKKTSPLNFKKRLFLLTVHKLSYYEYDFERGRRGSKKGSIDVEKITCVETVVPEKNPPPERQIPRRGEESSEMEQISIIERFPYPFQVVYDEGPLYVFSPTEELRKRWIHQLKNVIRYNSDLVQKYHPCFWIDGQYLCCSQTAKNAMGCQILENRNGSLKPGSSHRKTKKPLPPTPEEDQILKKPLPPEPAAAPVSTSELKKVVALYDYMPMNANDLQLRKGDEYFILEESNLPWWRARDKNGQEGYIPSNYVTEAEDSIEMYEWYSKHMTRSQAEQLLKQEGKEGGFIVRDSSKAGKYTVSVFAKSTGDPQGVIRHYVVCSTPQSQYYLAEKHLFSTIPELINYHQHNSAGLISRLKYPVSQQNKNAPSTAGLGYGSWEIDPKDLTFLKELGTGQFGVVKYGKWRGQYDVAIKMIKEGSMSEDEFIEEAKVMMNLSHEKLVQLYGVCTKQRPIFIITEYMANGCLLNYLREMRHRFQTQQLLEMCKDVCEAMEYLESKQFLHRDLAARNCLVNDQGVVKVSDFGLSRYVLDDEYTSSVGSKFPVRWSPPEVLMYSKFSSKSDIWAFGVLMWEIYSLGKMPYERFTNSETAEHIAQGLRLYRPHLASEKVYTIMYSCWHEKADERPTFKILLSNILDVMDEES
# UniProt Q9UQM7, whole entry: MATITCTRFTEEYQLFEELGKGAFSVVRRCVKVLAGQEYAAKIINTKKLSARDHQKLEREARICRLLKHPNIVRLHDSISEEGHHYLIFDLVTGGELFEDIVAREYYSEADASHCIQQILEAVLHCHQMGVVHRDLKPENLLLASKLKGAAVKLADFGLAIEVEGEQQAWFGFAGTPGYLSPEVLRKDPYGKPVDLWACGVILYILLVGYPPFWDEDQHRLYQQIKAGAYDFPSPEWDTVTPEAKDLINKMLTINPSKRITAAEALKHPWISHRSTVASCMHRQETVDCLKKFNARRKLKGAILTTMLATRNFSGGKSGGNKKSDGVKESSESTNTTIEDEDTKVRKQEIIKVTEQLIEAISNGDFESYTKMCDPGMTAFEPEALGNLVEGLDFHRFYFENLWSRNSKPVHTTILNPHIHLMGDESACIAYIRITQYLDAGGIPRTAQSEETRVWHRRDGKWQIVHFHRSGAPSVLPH
# UniProt Q13555: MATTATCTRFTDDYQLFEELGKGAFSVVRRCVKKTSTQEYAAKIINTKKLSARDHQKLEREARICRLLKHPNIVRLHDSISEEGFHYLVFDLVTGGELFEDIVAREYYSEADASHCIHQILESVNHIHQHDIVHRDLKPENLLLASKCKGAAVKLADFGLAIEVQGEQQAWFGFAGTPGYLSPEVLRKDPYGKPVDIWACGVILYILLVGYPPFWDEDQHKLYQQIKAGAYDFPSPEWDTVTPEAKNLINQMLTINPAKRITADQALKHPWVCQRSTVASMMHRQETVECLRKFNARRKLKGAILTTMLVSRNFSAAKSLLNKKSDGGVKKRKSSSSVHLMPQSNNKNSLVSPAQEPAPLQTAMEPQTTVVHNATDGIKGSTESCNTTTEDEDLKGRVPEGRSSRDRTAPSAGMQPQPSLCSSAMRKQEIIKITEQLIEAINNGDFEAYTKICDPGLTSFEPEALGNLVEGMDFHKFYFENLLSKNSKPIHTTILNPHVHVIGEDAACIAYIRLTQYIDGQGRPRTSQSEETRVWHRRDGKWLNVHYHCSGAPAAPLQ
# UniProt Q15131: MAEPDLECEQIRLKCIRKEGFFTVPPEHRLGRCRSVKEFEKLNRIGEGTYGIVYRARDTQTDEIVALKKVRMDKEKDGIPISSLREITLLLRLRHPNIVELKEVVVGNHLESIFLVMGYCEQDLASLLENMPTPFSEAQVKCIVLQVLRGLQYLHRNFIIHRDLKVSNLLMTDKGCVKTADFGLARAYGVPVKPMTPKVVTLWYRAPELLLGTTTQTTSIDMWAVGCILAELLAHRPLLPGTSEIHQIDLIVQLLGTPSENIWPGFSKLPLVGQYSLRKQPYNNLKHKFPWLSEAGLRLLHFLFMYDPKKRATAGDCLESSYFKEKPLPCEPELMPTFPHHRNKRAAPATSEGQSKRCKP
# UniProt Q00526: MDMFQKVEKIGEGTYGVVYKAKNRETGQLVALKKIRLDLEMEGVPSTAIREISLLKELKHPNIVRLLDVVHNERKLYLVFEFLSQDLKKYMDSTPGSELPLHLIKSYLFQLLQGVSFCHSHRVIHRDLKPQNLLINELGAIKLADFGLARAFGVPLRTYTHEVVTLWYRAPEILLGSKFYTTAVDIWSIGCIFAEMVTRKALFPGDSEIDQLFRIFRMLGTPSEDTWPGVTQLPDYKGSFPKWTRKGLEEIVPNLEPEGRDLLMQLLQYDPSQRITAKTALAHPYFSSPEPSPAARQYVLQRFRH
# UniProt P11802: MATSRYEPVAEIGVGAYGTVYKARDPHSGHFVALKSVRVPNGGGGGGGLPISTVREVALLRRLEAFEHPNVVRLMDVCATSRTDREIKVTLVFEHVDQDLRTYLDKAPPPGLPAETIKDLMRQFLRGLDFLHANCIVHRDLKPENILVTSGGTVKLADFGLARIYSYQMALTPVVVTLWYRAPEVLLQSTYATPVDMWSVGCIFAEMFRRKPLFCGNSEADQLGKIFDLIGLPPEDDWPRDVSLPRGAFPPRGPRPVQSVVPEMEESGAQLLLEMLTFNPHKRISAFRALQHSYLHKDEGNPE
# UniProt Q00535, whole entry, looked up: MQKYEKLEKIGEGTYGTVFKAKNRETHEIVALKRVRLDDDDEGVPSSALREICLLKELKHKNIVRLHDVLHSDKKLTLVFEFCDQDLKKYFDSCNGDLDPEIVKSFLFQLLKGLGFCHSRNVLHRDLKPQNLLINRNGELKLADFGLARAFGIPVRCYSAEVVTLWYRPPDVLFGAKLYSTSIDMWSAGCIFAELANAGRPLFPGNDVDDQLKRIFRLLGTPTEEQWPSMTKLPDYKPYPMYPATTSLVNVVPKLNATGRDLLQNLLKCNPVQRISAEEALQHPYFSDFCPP
# UniProt Q00534, whole entry: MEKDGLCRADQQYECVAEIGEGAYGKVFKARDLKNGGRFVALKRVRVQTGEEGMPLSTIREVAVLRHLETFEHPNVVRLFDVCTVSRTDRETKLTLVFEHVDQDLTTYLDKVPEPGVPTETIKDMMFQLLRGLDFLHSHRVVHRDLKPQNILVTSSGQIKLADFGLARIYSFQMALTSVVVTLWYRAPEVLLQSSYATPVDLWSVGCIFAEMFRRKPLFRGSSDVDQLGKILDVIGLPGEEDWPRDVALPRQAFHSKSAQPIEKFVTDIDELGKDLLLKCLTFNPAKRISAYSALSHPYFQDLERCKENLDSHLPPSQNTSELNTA
# UniProt P50613: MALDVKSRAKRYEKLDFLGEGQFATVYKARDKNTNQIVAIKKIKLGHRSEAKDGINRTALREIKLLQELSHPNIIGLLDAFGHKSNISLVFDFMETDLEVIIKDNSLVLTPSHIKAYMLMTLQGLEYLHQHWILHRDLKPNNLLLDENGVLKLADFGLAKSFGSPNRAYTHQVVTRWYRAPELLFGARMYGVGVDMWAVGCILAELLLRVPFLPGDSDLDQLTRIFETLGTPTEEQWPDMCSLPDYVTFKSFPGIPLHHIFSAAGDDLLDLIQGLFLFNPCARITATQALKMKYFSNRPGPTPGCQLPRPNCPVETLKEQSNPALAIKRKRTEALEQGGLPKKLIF
# UniProt P50750, whole entry: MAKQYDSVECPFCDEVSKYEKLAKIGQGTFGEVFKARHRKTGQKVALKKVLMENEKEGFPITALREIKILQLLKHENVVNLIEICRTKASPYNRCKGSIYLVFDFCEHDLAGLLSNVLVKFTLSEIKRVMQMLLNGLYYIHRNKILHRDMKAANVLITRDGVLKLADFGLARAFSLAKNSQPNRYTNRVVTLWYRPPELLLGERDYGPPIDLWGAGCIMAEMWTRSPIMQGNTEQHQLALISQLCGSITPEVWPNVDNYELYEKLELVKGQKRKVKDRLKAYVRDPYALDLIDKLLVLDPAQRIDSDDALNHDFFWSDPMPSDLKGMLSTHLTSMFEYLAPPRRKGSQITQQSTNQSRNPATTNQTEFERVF
# UniProt O96017, whole entry: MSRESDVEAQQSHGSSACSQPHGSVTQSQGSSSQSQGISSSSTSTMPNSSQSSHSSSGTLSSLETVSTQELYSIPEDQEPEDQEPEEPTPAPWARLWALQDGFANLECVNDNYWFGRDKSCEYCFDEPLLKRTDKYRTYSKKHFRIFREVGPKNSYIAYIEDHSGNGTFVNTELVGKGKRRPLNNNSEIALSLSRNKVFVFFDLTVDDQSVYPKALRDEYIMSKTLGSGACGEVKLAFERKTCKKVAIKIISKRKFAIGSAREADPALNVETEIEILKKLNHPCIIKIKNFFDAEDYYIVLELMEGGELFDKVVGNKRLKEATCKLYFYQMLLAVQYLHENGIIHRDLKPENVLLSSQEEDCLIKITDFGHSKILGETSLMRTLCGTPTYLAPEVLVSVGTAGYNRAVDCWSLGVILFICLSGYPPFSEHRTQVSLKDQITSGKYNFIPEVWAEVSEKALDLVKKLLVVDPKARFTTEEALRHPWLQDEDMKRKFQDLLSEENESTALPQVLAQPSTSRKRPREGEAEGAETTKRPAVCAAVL
# UniProt P41240: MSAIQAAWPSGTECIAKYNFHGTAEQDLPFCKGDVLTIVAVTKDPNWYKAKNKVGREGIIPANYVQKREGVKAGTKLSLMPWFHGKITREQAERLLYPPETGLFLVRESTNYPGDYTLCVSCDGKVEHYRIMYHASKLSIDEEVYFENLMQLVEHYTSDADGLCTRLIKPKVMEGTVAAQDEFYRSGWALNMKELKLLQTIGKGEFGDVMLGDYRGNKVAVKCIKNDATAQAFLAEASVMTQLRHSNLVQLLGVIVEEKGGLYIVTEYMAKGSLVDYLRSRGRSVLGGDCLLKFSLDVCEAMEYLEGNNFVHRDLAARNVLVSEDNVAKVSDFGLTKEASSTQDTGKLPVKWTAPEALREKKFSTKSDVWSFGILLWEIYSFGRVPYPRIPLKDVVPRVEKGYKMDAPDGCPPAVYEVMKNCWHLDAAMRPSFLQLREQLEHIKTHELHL
# UniProt P48729: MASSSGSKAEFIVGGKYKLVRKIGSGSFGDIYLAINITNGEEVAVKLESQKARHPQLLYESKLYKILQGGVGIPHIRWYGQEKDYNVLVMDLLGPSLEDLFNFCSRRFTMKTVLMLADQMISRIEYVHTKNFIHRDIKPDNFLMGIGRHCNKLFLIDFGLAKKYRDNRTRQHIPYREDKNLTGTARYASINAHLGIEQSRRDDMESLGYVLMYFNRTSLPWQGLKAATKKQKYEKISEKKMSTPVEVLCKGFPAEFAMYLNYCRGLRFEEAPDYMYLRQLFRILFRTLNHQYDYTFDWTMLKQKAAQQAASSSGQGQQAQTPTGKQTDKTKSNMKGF
# UniProt P48730: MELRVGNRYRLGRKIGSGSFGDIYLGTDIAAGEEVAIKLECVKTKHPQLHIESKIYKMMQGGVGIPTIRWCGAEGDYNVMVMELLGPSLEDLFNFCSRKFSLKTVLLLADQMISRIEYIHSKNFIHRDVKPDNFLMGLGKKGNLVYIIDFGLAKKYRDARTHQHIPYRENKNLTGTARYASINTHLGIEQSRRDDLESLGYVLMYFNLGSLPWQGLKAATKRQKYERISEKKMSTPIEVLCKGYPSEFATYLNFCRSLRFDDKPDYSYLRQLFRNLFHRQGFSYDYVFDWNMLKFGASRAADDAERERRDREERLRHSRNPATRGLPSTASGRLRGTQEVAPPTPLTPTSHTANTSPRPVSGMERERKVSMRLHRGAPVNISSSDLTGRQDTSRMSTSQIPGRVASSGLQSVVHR
# UniProt Q92630: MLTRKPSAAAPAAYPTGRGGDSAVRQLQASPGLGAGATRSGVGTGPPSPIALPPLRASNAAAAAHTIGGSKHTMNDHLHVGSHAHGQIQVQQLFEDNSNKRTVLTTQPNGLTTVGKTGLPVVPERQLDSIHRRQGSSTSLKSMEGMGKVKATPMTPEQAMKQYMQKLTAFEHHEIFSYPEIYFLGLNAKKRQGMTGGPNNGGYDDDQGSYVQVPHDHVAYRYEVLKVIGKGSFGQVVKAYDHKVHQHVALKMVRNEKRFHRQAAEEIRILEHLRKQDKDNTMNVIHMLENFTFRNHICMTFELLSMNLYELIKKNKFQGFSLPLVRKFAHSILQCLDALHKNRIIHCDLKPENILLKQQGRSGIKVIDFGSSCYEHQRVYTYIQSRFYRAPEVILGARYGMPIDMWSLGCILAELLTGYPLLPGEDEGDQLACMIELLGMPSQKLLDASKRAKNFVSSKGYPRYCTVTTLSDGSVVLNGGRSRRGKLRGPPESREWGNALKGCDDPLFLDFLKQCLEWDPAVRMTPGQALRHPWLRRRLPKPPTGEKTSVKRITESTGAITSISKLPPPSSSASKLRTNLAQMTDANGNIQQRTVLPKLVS
# Where a name gives a salt, the structure may show the parent alone. The list shows a part of the results. Hit calls seldom repeat between salt and free forms of one compound.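 Kinases were expressed as nanoluciferase fusions in K562 cells and luminescence was read every 4 h between 2 and 18 h as percent of control, DMSO set to 100% and a positive control to 0%. A time point counts as decreased when the signal drops significantly (2 sigma). The hit call is the authors' own, does not follow from the count of time points alone, and its rule is not shown.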
# What was measured:
# Test in all cases: kinase-Nluc reporter destabilization hit call (1 = scored as downregulated) (binary); higher = compound decreases kinase abundance
# Details in all cases: K562; 2-18 h
# BRAF_V600E = tested on: BRAF_V600E
# BTK = BTK (UniProt Q06187)
# CAMK2A = CAMK2A (UniProt Q9UQM7)
# CAMK2G = CAMK2G (UniProt Q13555)
# CDK10 = CDK10 (UniProt Q15131)
# CDK2 = CDK2 (UniProt P24941)
# CDK3 = CDK3 (UniProt Q00526)
# CDK4 = CDK4 (UniProt P11802)
# CDK5 = CDK5 (UniProt Q00535)
# CDK6 = CDK6 (UniProt Q00534)
# CDK7 = CDK7 (UniProt P50613)
# CDK9 = CDK9 (UniProt P50750)
# CHEK2 = CHEK2 (UniProt O96017)
# CSF1R = CSF1R (UniProt P07333)
# CSK = CSK (UniProt P41240)
# CSNK1A1 = CSNK1A1 (UniProt P48729)
# CSNK1D = CSNK1D (UniProt P48730)
# DDR1 = DDR1 (UniProt Q08345)
# DYRK1B = DYRK1B (UniProt Q9Y463)
# DYRK2 = DYRK2 (UniProt Q92630)
SMILES,kinase-Nluc reporter destabilization hit call (BRAF_V600E),kinase-Nluc reporter destabilization hit call (BTK),kinase-Nluc reporter destabilization hit call (CAMK2A),kinase-Nluc reporter destabilization hit call (CAMK2G),kinase-Nluc reporter destabilization hit call (CDK10),kinase-Nluc reporter destabilization hit call (CDK2),kinase-Nluc reporter destabilization hit call (CDK3),kinase-Nluc reporter destabilization hit call (CDK4),kinase-Nluc reporter destabilization hit call (CDK5),kinase-Nluc reporter destabilization hit call (CDK6),kinase-Nluc reporter destabilization hit call (CDK7),kinase-Nluc reporter destabilization hit call (CDK9),kinase-Nluc reporter destabilization hit call (CHEK2),kinase-Nluc reporter destabilization hit call (CSF1R),kinase-Nluc reporter destabilization hit call (CSK),kinase-Nluc reporter destabilization hit call (CSNK1A1),kinase-Nluc reporter destabilization hit call (CSNK1D),kinase-Nluc reporter destabilization hit call (DDR1),kinase-Nluc reporter destabilization hit call (DYRK1B),kinase-Nluc reporter destabilization hit call (DYRK2)
CN(C)c1ccc(-c2nc3ncc(Cl)c(N4CCN(CC(=O)Nc5nccs5)CC4)c3[nH]2)cc1 (2 µM),inactive: 0,inactive: 0,inactive: 0,inactive: 0,inactive: 0,inactive: 0,inactive: 0,inactive: 0,inactive: 0,inactive: 0,inactive: 0,inactive: 0,inactive: 0,inactive: 0,inactive: 0,inactive: 0,inactive: 0,inactive: 0,inactive: 0,inactive: 0
C=CC(=O)Nc1cc(Nc2nccc(-c3cn(C)c4ccccc34)n2)c(OC)cc1OCCN(C)C [Rezivertinib] (2.5 µM),inactive: 0,inactive: 0,inactive: 0,inactive: 0,inactive: 0,inactive: 0,inactive: 0,inactive: 0,inactive: 0,active: 1,inactive: 0,inactive: 0,inactive: 0,inactive: 0,inactive: 0,inactive: 0,inactive: 0,inactive: 0,inactive: 0,inactive: 0
CC(C)=CC[C@@H](O)C1=CC(=O)c2c(O)ccc(O)c2C1=O [Shikonin] (10 µM),inactive: 0,inactive: 0,inactive: 0,inactive: 0,inactive: 0,inactive: 0,inactive: 0,inactive: 0,inactive: 0,inactive: 0,inactive: 0,inactive: 0,inactive: 0,inactive: 0,inactive: 0,inactive: 0,inactive: 0,inactive: 0,inactive: 0,inactive: 0
COC(=O)[C@H](CCSC)NC(=O)c1ccc(NC[C@@H](N)CS)cc1-c1ccccc1 [FTI-277 (hydrochloride)] (10 µM),inactive: 0,inactive: 0,inactive: 0,inactive: 0,inactive: 0,inactive: 0,inactive: 0,inactive: 0,inactive: 0,inactive: 0,inactive: 0,inactive: 0,inactive: 0,inactive: 0,inactive: 0,inactive: 0,inactive: 0,inactive: 0,inactive: 0,inactive: 0
CCN(CC)CCOc1ccc(Nc2nc(-c3ccccc3NC(=O)CCN3CCN(C)CC3)nc3ccccc23)cc1 (2.5 µM),inactive: 0,inactive: 0,inactive: 0,inactive: 0,inactive: 0,inactive: 0,inactive: 0,inactive: 0,inactive: 0,inactive: 0,inactive: 0,inactive: 0,inactive: 0,inactive: 0,inactive: 0,inactive: 0,inactive: 0,inactive: 0,inactive: 0,inactive: 0
CN1CCN(c2ccc(Nc3ncc4cc(C#N)c(=O)n(C5CCCC5)c4n3)cc2)CC1 (10 µM),inactive: 0,inactive: 0,inactive: 0,inactive: 0,inactive: 0,inactive: 0,inactive: 0,inactive: 0,inactive: 0,inactive: 0,inactive: 0,inactive: 0,inactive: 0,inactive: 0,inactive: 0,inactive: 0,inactive: 0,inactive: 0,inactive: 0,inactive: 0
O=C(Nc1ccc(Cl)cc1)C1CCCN(C(=O)c2cc(C(F)(F)F)cc(C(F)(F)F)c2)C1 (stereo not given) (10 µM),inactive: 0,inactive: 0,inactive: 0,inactive: 0,inactive: 0,inactive: 0,inactive: 0,inactive: 0,inactive: 0,inactive: 0,active: 1,inactive: 0,inactive: 0,inactive: 0,inactive: 0,inactive: 0,inactive: 0,active: 1,inactive: 0,inactive: 0
CCN(CC)CCCC(C)Nc1nc(C)cc(Nc2ccc3nc(C)cc(N)c3c2)n1 (stereo not given) (10 µM),inactive: 0,inactive: 0,inactive: 0,inactive: 0,inactive: 0,inactive: 0,inactive: 0,inactive: 0,inactive: 0,inactive: 0,inactive: 0,inactive: 0,inactive: 0,inactive: 0,inactive: 0,inactive: 0,inactive: 0,inactive: 0,inactive: 0,inactive: 0
Cc1c(C(=O)Nc2ccc(Oc3ccnc4[nH]cc(-c5ccccc5)c34)c(F)c2)c(=O)n(-c2ccc(F)cc2)n1C (10 µM),inactive: 0,inactive: 0,inactive: 0,inactive: 0,inactive: 0,inactive: 0,inactive: 0,inactive: 0,inactive: 0,inactive: 0,inactive: 0,inactive: 0,inactive: 0,inactive: 0,inactive: 0,inactive: 0,inactive: 0,inactive: 0,inactive: 0,inactive: 0
Cc1cc(-n2c(=O)ccc3c[nH]c4nccc-4c32)ccc1F (10 µM),inactive: 0,inactive: 0,inactive: 0,inactive: 0,inactive: 0,inactive: 0,inactive: 0,inactive: 0,inactive: 0,inactive: 0,inactive: 0,inactive: 0,inactive: 0,inactive: 0,inactive: 0,inactive: 0,inactive: 0,inactive: 0,inactive: 0,inactive: 0
C[C@@H]1O[C@@H](Oc2cc(O)c3c(=O)c(O[C@@H]4O[C@@H](C)[C@H](O)[C@@H](O)[C@H]4O)c(-c4ccc(O)cc4)oc3c2)[C@H](O)[C@H](O)[C@H]1O [Kaempferitrin] (10 µM),inactive: 0,inactive: 0,inactive: 0,inactive: 0,inactive: 0,inactive: 0,inactive: 0,inactive: 0,inactive: 0,inactive: 0,inactive: 0,inactive: 0,inactive: 0,inactive: 0,inactive: 0,inactive: 0,inactive: 0,inactive: 0,inactive: 0,inactive: 0
CCC(=O)Nc1cccc(Oc2nc(Nc3ccc(N4CCN(C)CC4)cc3OC)ncc2Cl)c1 (10 µM),inactive: 0,inactive: 0,inactive: 0,inactive: 0,inactive: 0,inactive: 0,inactive: 0,inactive: 0,inactive: 0,inactive: 0,inactive: 0,inactive: 0,inactive: 0,inactive: 0,inactive: 0,inactive: 0,inactive: 0,inactive: 0,inactive: 0,inactive: 0
NS(=O)(=O)c1ccc(Nc2nc(-c3cccc(-c4ccccc4)c3)c3[nH]cnc3n2)cc1 (10 µM),inactive: 0,inactive: 0,inactive: 0,inactive: 0,inactive: 0,inactive: 0,inactive: 0,inactive: 0,inactive: 0,inactive: 0,inactive: 0,inactive: 0,inactive: 0,inactive: 0,inactive: 0,inactive: 0,inactive: 0,inactive: 0,inactive: 0,inactive: 0
CC(C)n1c(=O)n(C)c2cnc3cc(F)c(-c4ccc(OCCCN5CCCCC5)nc4)cc3c21 (10 µM),inactive: 0,inactive: 0,inactive: 0,inactive: 0,inactive: 0,inactive: 0,inactive: 0,inactive: 0,inactive: 0,inactive: 0,inactive: 0,inactive: 0,inactive: 0,inactive: 0,inactive: 0,inactive: 0,inactive: 0,inactive: 0,inactive: 0,inactive: 0
Cc1cc(C(=O)NC(C)(C)C)cc(C#Cc2ccc3c4c(oc3c2)C(C)(C)c2cc(NS(C)(=O)=O)ccc2C4=O)n1 (10 µM),inactive: 0,inactive: 0,inactive: 0,inactive: 0,inactive: 0,inactive: 0,inactive: 0,inactive: 0,inactive: 0,inactive: 0,inactive: 0,inactive: 0,inactive: 0,inactive: 0,inactive: 0,inactive: 0,inactive: 0,inactive: 0,inactive: 0,inactive: 0
O=C(O)c1ccc(/C=C/S(=O)(=O)Cc2ccc(Cl)cc2)cc1 [Recilisib] (10 µM),inactive: 0,inactive: 0,inactive: 0,inactive: 0,inactive: 0,inactive: 0,inactive: 0,inactive: 0,inactive: 0,inactive: 0,inactive: 0,inactive: 0,inactive: 0,inactive: 0,inactive: 0,inactive: 0,inactive: 0,inactive: 0,inactive: 0,inactive: 0
COc1cc2c(cc1OC)/C(=C/c1ccc(O)cc1)C(=O)N2 (10 µM),inactive: 0,inactive: 0,inactive: 0,inactive: 0,inactive: 0,inactive: 0,inactive: 0,inactive: 0,inactive: 0,inactive: 0,inactive: 0,inactive: 0,inactive: 0,inactive: 0,inactive: 0,inactive: 0,inactive: 0,inactive: 0,inactive: 0,inactive: 0
N#Cc1ccc(-c2cnc3ccc(-c4ccc(C(=O)N5CCOCC5)cc4)cn23)cc1 (10 µM),inactive: 0,inactive: 0,inactive: 0,inactive: 0,inactive: 0,inactive: 0,inactive: 0,inactive: 0,inactive: 0,inactive: 0,inactive: 0,inactive: 0,inactive: 0,inactive: 0,inactive: 0,inactive: 0,inactive: 0,inactive: 0,inactive: 0,inactive: 0

# Single entries from the entries so far:
# kinase-Nluc reporter destabilization hit call (CDK5), `CC(C)n1c(=O)n(C)c2cnc3cc(F)c(-c4ccc(OCCCN5CCCCC5)nc4)cc3c21` (10 µM) is entered as inactive: 0
# kinase-Nluc reporter destabilization hit call (CSF1R), `C=CC(=O)Nc1cc(Nc2nccc(-c3cn(C)c4ccccc34)n2)c(OC)cc1OCCN(C)C` [Rezivertinib] (2.5 µM) is entered as inactive: 0
